From publication PMC11354204, “Lactylation stabilizes TFEB to elevate autophagy and lysosomal activity” (The Journal of Cell Biology, 2024)
Results are given in words; binding and its absence hold for the method and conditions named. In cells and extracts the contact can be indirect. A yes stands for co-enrichment or nearness to the bait. Other partners may have been found.

Chains of the proteins cited; added tags and fusions are not shown.
UniProt P19484: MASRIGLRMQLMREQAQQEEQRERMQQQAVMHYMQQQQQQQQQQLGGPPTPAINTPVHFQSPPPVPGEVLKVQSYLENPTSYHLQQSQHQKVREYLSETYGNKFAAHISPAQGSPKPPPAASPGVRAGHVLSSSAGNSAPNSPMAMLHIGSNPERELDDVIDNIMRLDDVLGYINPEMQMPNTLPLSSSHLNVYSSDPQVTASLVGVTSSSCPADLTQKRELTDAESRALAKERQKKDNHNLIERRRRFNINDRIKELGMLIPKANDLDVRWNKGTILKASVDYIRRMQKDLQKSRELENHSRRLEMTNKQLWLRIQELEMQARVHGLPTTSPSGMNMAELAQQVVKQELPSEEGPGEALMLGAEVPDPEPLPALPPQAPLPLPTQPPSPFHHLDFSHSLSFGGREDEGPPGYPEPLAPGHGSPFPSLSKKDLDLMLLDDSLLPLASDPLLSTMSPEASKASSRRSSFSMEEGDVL
UniProt Q9UNE7: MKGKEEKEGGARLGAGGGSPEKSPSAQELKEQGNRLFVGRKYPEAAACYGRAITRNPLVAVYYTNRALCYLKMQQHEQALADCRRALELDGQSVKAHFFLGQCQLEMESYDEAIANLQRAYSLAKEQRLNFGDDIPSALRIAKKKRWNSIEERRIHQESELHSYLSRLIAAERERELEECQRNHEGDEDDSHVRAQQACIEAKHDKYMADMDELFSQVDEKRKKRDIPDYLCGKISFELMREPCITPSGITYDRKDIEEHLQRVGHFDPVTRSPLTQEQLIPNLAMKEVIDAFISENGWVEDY

Biological target: TFEB-Flag (human) (UniProt P19484)
Test: affinity purification with mass spectrometry; TFEB-Flag immunoprecipitated with anti-Flag beads from HEK293T cells; on-bead trypsin digestion, HPLC-MS/MS

- binding: binds
Substance: STUB1 (endogenous) (from UniProt Q9UNE7 1-303)
